For the data set, the system named is MDP1 transgenic plants expressing PYR1^MANDI. Description: RNASeq genome-wide gene expression. Particulars: 2 μM mandipropamid vs 50 μM ABA. Format: in vivo, Arabidopsis.

The structures appear in SMILES notation.

With `C#CCOc1ccc(CCNC(=O)C(OCC#C)c2ccc(Cl)cc2)cc1OC` (stereo not shown) [Mandipropamid, mandipropamid], the “correlation r of mandipropamid response with ABA response (genome-wide)” value is given as 0.90.

These data come from patent publication US9738902B2, “Modified PYR/PYL receptors activated by ligands” (priority 2013, dated 2017).
